Reference: PubChem BioAssay AID1347426 (Functional Genomics Laboratory (NCATS/FGL), 2020)
Hit rate of the full screen: of about 31,000 sequences, about 1,400 (4.5%) were called active.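 The calls were made as follows: active = median seed-adjusted z-score above 1 or below -1; inactive = the rest.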 The list shows a part of the results.

Assay: Novel Modifiers of Survival Motor Neuron (SMN) Protein: Gene Identification via Genome-wide siRNA Screen;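 also: luminescence tracks full-length SMN protein made from the SMN2 reporter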
Details: HEK293T SMN2-luciferase reporter, siRNA knockdown, 72 h; actives lie on both sides
Procedure, shortened: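 HEK293T cells stably carrying an SMN2 promoter/splicing cassette–luciferase reporter were reverse-transfected with 1 pmol siRNA per well (druggable-genome library, 3 siRNAs per gene) and grown 72 h at 37 °C. Luminescence, normalized to negative-control siRNA and log10-transformed, was scored as MAD.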

| Sequence | median seed-adjusted z-score |
| --- | --- |
| GCCUUGACCUGAACUGCGATT against KCND1 | inactive: -0.359 |
| CUGACAUUAUGCAUGCUAATT against CYP4F22 | inactive: 0.383 |
| UCACCUCUAUGACACGAUUTT against RAB7L1 | inactive: 0.243 |
| GGAUAAAUGAGGAGGAUCATT against CKMT2 | inactive: -0.862 |
| GGAGAUGGACCAACCCAGATT against TENC1 | inactive: 0.892 |
| GCGUAUUUGAAAUGCCCAATT against VAPA | inactive: -0.623 |
| GCCGUGCUGUCUAAUCAAATT against HOXB9 | inactive: 0.717 |
| CCUACAAUGUGGUGCAUAUTT against DYRK4 | inactive: -0.824 |
| GGUUUUACCUAGACGUGAATT against PURG | inactive: 0.448 |
| GUGCGGUAGCUACUUGUUUTT against RRAD | inactive: -0.267 |
| CGAACUUAAUAGUACCCUUTT against NR0B1 | inactive: -0.526 |
| CGCCUCAACCUGAUCAUCATT against ENPP7 | inactive: -0.478 |
| CACUAGACGUGUUGUCAUUTT against RNASE4 | inactive: -0.0112 |
| AGUGCUCAGUAAAGCAAUATT against PTGER4 | inactive: -0.289 |
| GGAAGAACGGUGUUAGUUATT against ABCB10 | inactive: -0.1 |
| GGGUUUCUGUGAGAGACAATT against UBE2F | inactive: 0 |
| GAUCCUAUUAUAUAAUGGATT against CTSA | inactive: 0.0897 |
| GGACUUUGCCGGAUUCACUTT against OCA2 | inactive: 0.457 |
| CGAUGUGCACUACGACUUUTT against HMHA1 | inactive: -0.285 |
| CUCCUUAUCUAUACCAAAATT against SLC10A2 | inactive: -0.219 |
| AGAGAAGUCGGAAGAAGCATT against BATF3 | inactive: 0.698 |
| CGUUCUCCAUUGUCACCAATT against CAMK2B | inactive: 0.0305 |

An excerpt of these results, as comma-separated lines:
Sequence,median seed-adjusted z-score
CUGACAUUAUGCAUGCUAATT against CYP4F22,inactive: 0.383
UCACCUCUAUGACACGAUUTT against RAB7L1,inactive: 0.243
GGAUAAAUGAGGAGGAUCATT against CKMT2,inactive: -0.862
GGAGAUGGACCAACCCAGATT against TENC1,inactive: 0.892
GCGUAUUUGAAAUGCCCAATT against VAPA,inactive: -0.623
GCCGUGCUGUCUAAUCAAATT against HOXB9,inactive: 0.717
CCUACAAUGUGGUGCAUAUTT against DYRK4,inactive: -0.824
GGUUUUACCUAGACGUGAATT against PURG,inactive: 0.448
GUGCGGUAGCUACUUGUUUTT against RRAD,inactive: -0.267
CGAACUUAAUAGUACCCUUTT against NR0B1,inactive: -0.526
CGCCUCAACCUGAUCAUCATT against ENPP7,inactive: -0.478
CACUAGACGUGUUGUCAUUTT against RNASE4,inactive: -0.0112
AGUGCUCAGUAAAGCAAUATT against PTGER4,inactive: -0.289
GGAAGAACGGUGUUAGUUATT against ABCB10,inactive: -0.1
GGGUUUCUGUGAGAGACAATT against UBE2F,inactive: 0
GAUCCUAUUAUAUAAUGGATT against CTSA,inactive: 0.0897
GGACUUUGCCGGAUUCACUTT against OCA2,inactive: 0.457
CGAUGUGCACUACGACUUUTT against HMHA1,inactive: -0.285
CUCCUUAUCUAUACCAAAATT against SLC10A2,inactive: -0.219
AGAGAAGUCGGAAGAAGCATT against BATF3,inactive: 0.698
CGUUCUCCAUUGUCACCAATT against CAMK2B,inactive: 0.0305

More results

| Sequence | median seed-adjusted z-score |
| --- | --- |
| GGGUCUAAGUCAUUCGACUTT against LAMA2 | inactive: 0.0733 |
| GGAUCGUGGUUGCAGGGAUTT against DNASE1 | inactive: -0.35 |
| GAAUGAAACAACUGAUUAATT against PDIK1L | inactive: 0.0682 |
| GGCCUGAGAUCCAACUGCATT against SHBG | inactive: 0.587 |
| GGAGCGGAGAGAACGCAUUTT against TRIM17 | inactive: 0.574 |
| GCUGGAAGCUGCUCAAAGATT against SOX4 | inactive: -0.188 |
| CGUGUAACACUGCAUCGGATT against MGMT | inactive: -0.0549 |
| GGGAAAGCUGGACUACUAATT against PIK3CB | inactive: 0.0911 |
| GAGUGCCGGUAUUCAAGUATT against ALDH1L1 | inactive: 0.0289 |
| UGCCCUUCAUAGACGCAUATT against UPB1 | inactive: -0.0341 |
| GCACAUAUGAGCUAGUGUATT against TRIM3 | inactive: -0.215 |
| GCCUAUGUCAGAUCAGUAUTT against AP3D1 | inactive: 0.213 |
| GCCUGUCAGUGAUACUGAUTT against XPR1 | inactive: -0.024 |
| GGAUGUAGAGAAUGAGCUATT against RUFY2 | inactive: 0 |
| CAGCGAUGCUUGUAGCACATT against GPR125 | inactive: 0.516 |
| GGAUCAUGUUUGGAGCUAATT against GBA2 | inactive: 0.143 |
| ACACGGCAGUGGAAAGGAATT against CHRAC1 | inactive: 0.193 |
| AGACGGUAGAGAUUCUAAATT against 5-Sep | inactive: -0.0749 |
| CAGAUUUAAUAGACGAGUATT against PRKAR2A | inactive: 0.213 |
| CAUGGAUCCUAGCAAGAUUTT against KLKBL4 | inactive: -0.0132 |
| GUAAAGAUGCUACUGUAUATT against GDI1 | inactive: 0.198 |
| CUCAAGUCGUUGGACCAGATT against HIPK4 | inactive: 0 |

| Sequence | median seed-adjusted z-score |
| --- | --- |
| GGAACGGCUUCAUCUCCAATT against CALN1 | inactive: 0.0753 |
| GCAGUGGAGUAUAACACCATT against SEMA6A | inactive: -0.192 |
| GCUUGGAAGAAAUCGCUGATT against CA9 | inactive: 0.0833 |
| ACAUCUCGCUGAAGGUUGATT against TEKT2 | inactive: -0.349 |
| CGUGCGGAAUUGUUCCUCUTT against CYP2B6 | inactive: 0.454 |
| GGAAAGUCUUUAGAUACAATT against ZNF17 | inactive: 0.579 |
| GACCCACUCCAAUUCUAGATT against TFAP2D | inactive: 0 |
| GCAGAUGGAUGGACUGAGATT against SLC25A45 | inactive: -0.246 |
| CUUGUCUCAUUGUCAAUAATT against TAT | inactive: 0.257 |
| CGUACAAACUGAUGUCCUUTT against AP4B1 | inactive: 0.0278 |
| GGAGCAUAUGCGAACAAUATT against RAB28 | inactive: 0.114 |
| GCUCAUCGACAUCAAAGUUTT against PRPF19 | inactive: -0.485 |
| GGCGUACGGUGAGAACAUUTT against ATP1B1 | inactive: 0.971 |
| CCCUAAUACCAGAAUAGGATT against CYBB | inactive: 0.0487 |
| GAAAUUGUCCAUAUAGAUATT against PITPNB | inactive: 0.57 |
| GCAACUGCGUAACUGAUGATT against BAG5 | inactive: -0.0153 |
| CAUUCGAAACGAAGACAAATT against DNAJB1 | inactive: 0.466 |
| GCUCUGUAAUAGUCGACUATT against TOPBP1 | inactive: 0.0888 |
| AGUACUCCGUCAUGAUCAATT against NDUFA3 | inactive: -0.062 |
| CGCAAGGACAGAAAACCAATT against ASMT | inactive: -0.322 |
| GCACUGAUAAGAAUCUAUUTT against ABHD6 | inactive: 0 |
| GGAGGUCGAUUUAGUAACATT against AUH | inactive: 0 |

Some values from above.
AGACGGUAGAGAUUCUAAATT against 5-Sep – median seed-adjusted z-score: inactive: -0.0749
UCACCUCUAUGACACGAUUTT against RAB7L1 – median seed-adjusted z-score: inactive: 0.243

Next entries follow:

| Sequence | median seed-adjusted z-score |
| --- | --- |
| GGAUCCUGAUGCUUCAAAATT against CALR | inactive: -0.795 |
| CUAUCCUUGAAAUCCCGAATT against CNTN6 | inactive: 0 |
| GGAAGUAUCUUCAGGCAGATT against MS4A2 | inactive: 0.155 |
| ACAAGUUCUUGGAGCCUUATT against ATP1B2 | inactive: -0.185 |
| GGUUAUCUGGUUAUGGUGATT against SLC28A3 | inactive: -0.107 |
| GGUCCGGAAUGUGAACUUUTT against SERPINE2 | inactive: 0.0144 |
| CAAACACUUCUAUUACUUUTT against MOBKL2B | inactive: -0.613 |
| GCAAAAUGAUCAAGCCUUUTT against TXN | inactive: -0.195 |
| CCCUUAACCUCAUGAGCAATT against ZBTB39 | inactive: -0.209 |
| CAGAGGUACUCCACGCAGATT against BHLHA15 | inactive: -0.199 |
| CCUUUUACGUCACCCUUUATT against LIPG | inactive: -0.00236 |
| GUUCAAUGGUGGAAGCUUATT against CLEC4F | inactive: 0.347 |
| GGAUCGAUCUUCUUGUGGATT against SHKBP1 | inactive: 0.345 |
| GCCUUGACUCAUUUGGAAATT against PADI2 | inactive: -0.199 |
| GGUCUACCGGAUUAUCACATT against BRD2 | inactive: -0.242 |
| GCUGUGCCCAAUACAAGAATT against ALDOC | inactive: 0.119 |
| GGACCUGUUAAGACCUAUATT against AMPD1 | inactive: 0.378 |
| GGUGGAGCAAGUUGGCAAATT against NOXA1 | inactive: -0.441 |
| GCUCAGCUCUUCGAAUUCATT against ZNF214 | inactive: 0.467 |
| CUCAGAUACUAUUAUGUAATT against ELK4 | inactive: 0.235 |
| GGCUUUACUUUACAUCGAATT against FBXO45 | inactive: -0.043 |
| ACUCAACAACUGUUCAAUATT against DYNLRB2 | inactive: 0.534 |

| Sequence | median seed-adjusted z-score |
| --- | --- |
| CCUUACCCUCAAAACAUUATT against B3GALT1 | inactive: -0.0555 |
| CCAAGAAAAUCACUCUUAATT against IMPDH2 | inactive: 0.119 |
| UCCUCAAAGUGACACCGGATT against CREB3L1 | inactive: 0.708 |
| GAUAGAACUUGAGACAGUATT against UBE2G1 | inactive: 0.174 |
| CUUUGGAGAUGCUAUUAAATT against HBE1 | inactive: -0.425 |
| GAUAUAUGGUGUUUCAAAATT against UGT2B15 | inactive: 0.421 |
| GCAUGAAACUGAGUGAAGATT against RASSF5 | inactive: 0.11 |
| GCACGAGGUUUUCACCUAUTT against SRMS | active: -1.58 |
| CAAGCGAAUUAACUAUCUATT against GJB3 | inactive: -0.198 |
| GAGUCUUACUGUUAACAGUTT against CRTC1 | inactive: 0.00363 |
| CACCUAUCGCUUACACGUATT against SUOX | inactive: -0.0649 |
| GCUUGCAGUUAAUAUCAUUTT against ODC1 | active: -1.64 |
| GCACGGCACUCAAGAUCAATT against CACNA1S | inactive: 0.842 |
| GAGCAGCAGUGCGAAGUGATT against THBD | inactive: -0.16 |
| CCGUGUUCAUUCCUUUUCATT against ZFP41 | inactive: 0 |
| GCACUGUGGUGAGCUCCAATT against SRP14 | inactive: 0.0824 |
| GCUUGCUCCUAGACAAUUATT against SPAM1 | inactive: 0.518 |
| ACAAGACUCUGGACAUUAATT against DHRS4 | inactive: 0.263 |
| AAGUGUUUGUUGUCCGGGATT against PCDH11Y | inactive: 0.186 |
